Assay results: US20110053864A1
These are yes or no findings as the source states them, for the method shown. Some binding calls cover weakened binding; strength is not graded here.

Protein sequences, listed by entry. Tags and fused reporters are not part of them. Residues count along the entry.
UniProt P16070, residues 21-742: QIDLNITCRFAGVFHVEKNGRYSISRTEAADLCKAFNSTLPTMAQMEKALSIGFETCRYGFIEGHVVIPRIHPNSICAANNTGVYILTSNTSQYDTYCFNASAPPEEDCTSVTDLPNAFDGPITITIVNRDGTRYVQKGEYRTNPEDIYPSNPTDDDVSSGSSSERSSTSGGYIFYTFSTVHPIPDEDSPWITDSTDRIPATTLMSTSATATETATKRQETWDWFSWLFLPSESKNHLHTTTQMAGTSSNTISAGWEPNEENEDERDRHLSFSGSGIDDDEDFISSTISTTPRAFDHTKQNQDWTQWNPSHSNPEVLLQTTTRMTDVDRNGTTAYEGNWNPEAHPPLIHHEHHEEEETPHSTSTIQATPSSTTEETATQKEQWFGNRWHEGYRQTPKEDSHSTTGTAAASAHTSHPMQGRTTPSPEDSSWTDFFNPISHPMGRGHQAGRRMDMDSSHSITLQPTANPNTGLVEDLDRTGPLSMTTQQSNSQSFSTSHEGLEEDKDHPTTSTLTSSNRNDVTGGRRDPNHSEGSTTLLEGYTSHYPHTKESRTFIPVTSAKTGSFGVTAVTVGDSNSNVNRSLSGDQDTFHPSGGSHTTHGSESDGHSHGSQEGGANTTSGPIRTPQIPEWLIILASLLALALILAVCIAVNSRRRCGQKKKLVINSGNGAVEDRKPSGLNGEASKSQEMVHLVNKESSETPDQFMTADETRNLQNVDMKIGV

B1: Å6Cbiotin (peptide)
peptide: KPSSPPEE
modifications: biotin label (attachment not described)
B2: Å6 peptide (Ac-KPSSPPEE-Am, SEQ ID NO:1) (peptide)
peptide: KPSSPPEE
modifications: N-terminal acetyl (Ac); C-terminal amide (Am)

How the values were obtained:
CD44 on SKOV3 cells [1] = target: CD44 on SKOV3 cells (UniProt P16070); experiment: crosslinking of 100 µM Å6Cbiotin to SKOV3 cells, immunoprecipitation with anti-CD44 DF1485, HRP-streptavidin blot
CD44 on SKOV3 cells [2] = target: CD44 on SKOV3 cells (UniProt P16070); experiment: crosslinking of 100 µM Å6Cbiotin to SKOV3 cells, immunoprecipitation with anti-CD44 DF1485, blots
CD44 on SKOV3 cells [3] = target: CD44 on SKOV3 cells (UniProt P16070); experiment: FACS competition on SKOV3 cells; Å6 concentration varied, competitor DF1485

Binder | binding (CD44 on SKOV3 cells [1]) | binding (CD44 on SKOV3 cells [2]) | binding (CD44 on SKOV3 cells [3])
B1 | binds | binds | –
B2 | – | – | binds
